In paper doi:10.1101/2023.01.13.523954:
No constants are given. Whether binding was seen depends on the method and setting. Binding seen in cells or lysates may run through a third protein. Some entries that bind do so weakly or less than the wild type.

The chains behind the UniProt entries cited, without tags or fusion partners.
UniProt Q9HWE5, whole entry: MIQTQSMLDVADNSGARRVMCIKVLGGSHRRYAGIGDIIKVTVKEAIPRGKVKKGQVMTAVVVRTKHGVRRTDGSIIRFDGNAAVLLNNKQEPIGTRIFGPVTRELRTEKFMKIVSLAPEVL
UniProt Q02SH2, whole entry: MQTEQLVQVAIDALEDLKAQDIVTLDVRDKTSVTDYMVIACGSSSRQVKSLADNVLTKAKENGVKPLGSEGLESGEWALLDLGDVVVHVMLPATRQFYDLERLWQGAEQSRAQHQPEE

Biological target: rplN (P. aeruginosa (endogenous in strain PAO1)) (UniProt Q9HWE5)
Assay: cross-linking

With “ribosome silencing factor rsfS (from UniProt Q02SH2 1-118)” the binding was “binds”.
